In patent publication US10906977B2, “Enhancing the therapeutic activity of immune checkpoint inhibitor” (Maine Medical Center Research Institute, priority 2016, dated 2021) one finds binding data, which are given here for three substances.

Protein sequences, listed by entry. Tags and fused reporters are not part of them. Lines headed by an entry give the natural chain unless they say otherwise; changes in a name come on top.
UniProt P06756: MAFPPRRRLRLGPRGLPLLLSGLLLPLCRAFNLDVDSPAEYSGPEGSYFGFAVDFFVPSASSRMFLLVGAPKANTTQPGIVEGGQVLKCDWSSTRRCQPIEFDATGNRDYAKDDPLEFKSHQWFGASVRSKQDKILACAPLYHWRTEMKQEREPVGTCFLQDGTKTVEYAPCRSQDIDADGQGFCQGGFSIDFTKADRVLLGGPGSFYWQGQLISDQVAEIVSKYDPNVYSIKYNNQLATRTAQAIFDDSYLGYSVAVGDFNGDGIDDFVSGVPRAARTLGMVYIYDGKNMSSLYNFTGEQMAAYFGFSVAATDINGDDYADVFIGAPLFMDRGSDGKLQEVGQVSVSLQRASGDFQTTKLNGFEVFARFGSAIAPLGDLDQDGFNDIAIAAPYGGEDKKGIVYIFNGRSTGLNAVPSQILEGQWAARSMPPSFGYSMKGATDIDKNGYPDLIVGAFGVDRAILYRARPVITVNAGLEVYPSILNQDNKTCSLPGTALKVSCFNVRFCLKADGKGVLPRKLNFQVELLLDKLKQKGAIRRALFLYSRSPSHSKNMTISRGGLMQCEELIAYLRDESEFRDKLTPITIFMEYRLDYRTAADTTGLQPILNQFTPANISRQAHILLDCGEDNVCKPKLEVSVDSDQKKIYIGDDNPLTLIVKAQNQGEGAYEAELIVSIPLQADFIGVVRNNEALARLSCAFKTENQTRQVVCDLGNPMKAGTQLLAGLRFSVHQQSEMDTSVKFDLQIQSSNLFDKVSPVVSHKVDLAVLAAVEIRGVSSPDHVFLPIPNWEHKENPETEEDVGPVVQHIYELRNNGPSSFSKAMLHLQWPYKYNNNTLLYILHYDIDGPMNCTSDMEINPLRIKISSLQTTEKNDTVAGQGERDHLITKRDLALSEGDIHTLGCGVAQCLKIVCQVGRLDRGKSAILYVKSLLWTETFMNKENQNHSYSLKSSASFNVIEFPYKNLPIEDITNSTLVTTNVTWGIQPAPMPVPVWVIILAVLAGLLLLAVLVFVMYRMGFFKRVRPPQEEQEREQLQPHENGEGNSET
UniProt P17301: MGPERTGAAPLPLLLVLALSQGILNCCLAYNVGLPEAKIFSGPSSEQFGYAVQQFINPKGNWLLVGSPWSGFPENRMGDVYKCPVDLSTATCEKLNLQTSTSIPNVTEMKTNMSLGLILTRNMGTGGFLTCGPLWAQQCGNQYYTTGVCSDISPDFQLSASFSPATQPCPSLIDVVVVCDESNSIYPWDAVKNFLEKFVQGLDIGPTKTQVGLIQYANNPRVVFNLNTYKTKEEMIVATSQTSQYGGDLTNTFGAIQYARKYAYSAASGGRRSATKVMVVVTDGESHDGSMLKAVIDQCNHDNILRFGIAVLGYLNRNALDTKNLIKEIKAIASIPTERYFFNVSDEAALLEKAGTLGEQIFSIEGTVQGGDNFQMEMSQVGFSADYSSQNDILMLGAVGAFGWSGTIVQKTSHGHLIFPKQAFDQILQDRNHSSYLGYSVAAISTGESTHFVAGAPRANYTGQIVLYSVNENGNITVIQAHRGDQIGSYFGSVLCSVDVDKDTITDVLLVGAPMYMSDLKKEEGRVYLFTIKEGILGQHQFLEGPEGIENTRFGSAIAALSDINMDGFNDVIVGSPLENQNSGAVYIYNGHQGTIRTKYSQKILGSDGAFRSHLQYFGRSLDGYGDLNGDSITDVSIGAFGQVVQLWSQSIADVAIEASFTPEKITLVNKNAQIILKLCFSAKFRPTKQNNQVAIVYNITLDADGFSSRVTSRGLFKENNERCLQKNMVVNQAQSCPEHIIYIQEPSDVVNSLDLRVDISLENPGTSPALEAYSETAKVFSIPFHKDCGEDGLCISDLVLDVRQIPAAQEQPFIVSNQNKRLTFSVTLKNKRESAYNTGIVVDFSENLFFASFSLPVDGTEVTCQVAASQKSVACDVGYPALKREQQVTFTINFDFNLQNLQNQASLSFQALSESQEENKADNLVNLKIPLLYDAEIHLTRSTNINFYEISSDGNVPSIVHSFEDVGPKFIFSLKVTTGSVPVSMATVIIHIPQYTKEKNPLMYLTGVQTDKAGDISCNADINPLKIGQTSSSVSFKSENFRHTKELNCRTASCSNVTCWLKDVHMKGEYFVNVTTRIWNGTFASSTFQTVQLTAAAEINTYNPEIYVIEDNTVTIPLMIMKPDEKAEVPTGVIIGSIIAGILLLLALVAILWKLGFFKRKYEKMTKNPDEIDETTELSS
UniProt O75578: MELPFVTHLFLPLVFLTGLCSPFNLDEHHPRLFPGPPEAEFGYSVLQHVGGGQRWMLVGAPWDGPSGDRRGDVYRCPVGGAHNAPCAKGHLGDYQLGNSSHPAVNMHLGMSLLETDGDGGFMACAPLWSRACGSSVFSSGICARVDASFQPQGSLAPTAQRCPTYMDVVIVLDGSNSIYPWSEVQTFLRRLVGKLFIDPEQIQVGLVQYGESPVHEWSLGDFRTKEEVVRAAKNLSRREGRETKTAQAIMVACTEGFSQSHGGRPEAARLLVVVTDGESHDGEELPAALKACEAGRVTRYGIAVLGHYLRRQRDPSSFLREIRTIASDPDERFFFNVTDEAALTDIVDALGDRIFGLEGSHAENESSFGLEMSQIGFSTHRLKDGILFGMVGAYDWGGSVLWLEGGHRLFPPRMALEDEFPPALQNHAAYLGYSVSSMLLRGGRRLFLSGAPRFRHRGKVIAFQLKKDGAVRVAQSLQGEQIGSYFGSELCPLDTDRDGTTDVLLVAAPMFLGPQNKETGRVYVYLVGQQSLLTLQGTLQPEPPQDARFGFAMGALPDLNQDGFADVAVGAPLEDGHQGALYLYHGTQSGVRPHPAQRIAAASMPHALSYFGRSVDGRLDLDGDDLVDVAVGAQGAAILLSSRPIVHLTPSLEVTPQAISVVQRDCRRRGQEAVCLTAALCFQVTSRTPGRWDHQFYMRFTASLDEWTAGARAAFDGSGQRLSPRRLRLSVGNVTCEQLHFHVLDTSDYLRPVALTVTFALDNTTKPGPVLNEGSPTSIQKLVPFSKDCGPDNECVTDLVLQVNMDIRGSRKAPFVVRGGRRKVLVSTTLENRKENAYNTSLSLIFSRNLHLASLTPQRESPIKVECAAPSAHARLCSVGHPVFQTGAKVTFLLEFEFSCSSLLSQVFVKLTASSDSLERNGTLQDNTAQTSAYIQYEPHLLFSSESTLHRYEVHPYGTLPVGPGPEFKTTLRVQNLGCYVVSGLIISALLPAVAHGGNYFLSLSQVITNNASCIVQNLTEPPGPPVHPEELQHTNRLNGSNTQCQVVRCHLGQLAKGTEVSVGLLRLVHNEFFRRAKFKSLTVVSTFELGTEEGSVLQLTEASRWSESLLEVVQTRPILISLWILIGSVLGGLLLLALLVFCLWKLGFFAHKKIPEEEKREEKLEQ

The target in test [1] is T1, Synthetic collagen RGD containing peptide P-2 (…) (human).
T1 sequence (peptide): CQGPRGDKGEC
In words: solid phase ELISA, P-2 immobilized at 100 µg/ml, increasing recombinant αvβ3. On the technique in general: An ELISA detects its analyte on a solid surface through an enzyme-linked reagent.

The target in test [2] is T2, Collagen PGF-peptide (CPGFPGFC), synthetic HU177 epitope.
T2 sequence (peptide): CPGFPGFC
The test is described as follows: solid-phase binding assay, integrin on immobilized PGF peptide (100 ug/ml).

Test [3] shares this target. The test is described as follows: solid-phase binding assays (legend of FIG. 23).
The target is the same in test [4]. The test is described as follows: ELISA, recombinant integrins on immobilized cPG peptide (legend of FIG. 25).

No constants are given. Whether binding was seen depends on the method and setting. Some binding calls cover weakened binding; strength is not graded here. For some of these results: Tags and fused reporters may be left off the sequences shown.

“integrin αvβ3 (recombinant) (from UniProt P06756 31-992; P05106 27-718) (receptor)”: the binding result in test [1] was “binds”. Regarding “integrin α2β1 (recombinant) (from UniProt P17301 30-1132; P05556 21-728) (receptor)”, the binding entry in test [2] is “binds”. With “integrin α10β1 (recombinant) (from UniProt O75578 23-1122; P05556 21-728) (receptor)”, the binding entry in test [3] and in test [4] was “binds” each time.
